Results from patent publication US20250283871A1, “COMPOSITIONS AND METHODS FOR MODULATING THE INTERACTION BETWEEN SS18-SSX FUSION ONCOPROTEIN AND NUCLEOSOMES” (Dana-Farber Cancer Institute, Inc., priority 2020, published 2025).

B1: HARS (protein, UniProt P12081 2-509, looked up)
Histidine--tRNA ligase, …: AERAALEELVKLQGERVRGLKQQKASAELIEEEVAKLLKLKAQLGPDESKQKFVLKTPKGTRDYSPRQMAVREKVFDVIIRCFKRHGAEVIDTPVFELKETLMGKYGEDSKLIYDLKDQGGELLSLRYDLTVPFARYLAMNKLTNIKRYHIAKVYRRDNPAMTRGRYREFYQCDFDIAGNFDPMIPDAECLKIMCEILSSLQIGDFLVKVNDRRILDGMFAICGVSDSKFRTICSSVDKLDKVSWEEVKNEMVGEKGLAPEVADRIGDYVQQHGGVSLVEQLLQDPKLSQNKQALEGLGDLKLLFEYLTLFGIDDKISFDLSLARGLDYYTGVIYEAVLLQTPAQAGEEPLGVGSVAAGGRYDGLVGMFDPKGRKVPCVGLSIGVERIFSIVEQRLEALEEKIRTTETQVLVASAQKKLLEERLKLVSELWDAGIKAELLYKKNPKLLNQLQYCEEAGIPLVAIIGEQELKDGVIKLRSVTSREEVDVRREDLVEEIKRRTGQPLCIC
B2: MPV17 (protein, UniProt P39210 1-176, looked up)
Mitochondrial inner membrane …: MALWRAYQRALAAHPWKVQVLTAGSLMGLGDIISQQLVERRGLQEHQRGRTLTMVSLGCGFVGPVVGGWYKVLDRFIPGTTKVDALKKMLLDQGGFAPCFLGCFLPLVGALNGLSAQDNWAKLQRDYPDALITNYYLWPAVQLANFYLVPLHYRLAVVQCVAVIWNSYLSWKAHRL
B3: MTX2 (protein, UniProt O75431 2-263, looked up)
Metaxin-2: SLVAEAFVSQIAAAEPWPENATLYQQLKGEQILLSDNAASLAVQAFLQMCNLPIKVVCRANAEYMSPSGKVPFIHVGNQVVSELGPIVQFVKAKGHSLSDGLEEVQKAEMKAYMELVNNMLLTAELYLQWCDEATVGEITHARYGSPYPWPLNHILAYQKQWEVKRKMKAIGWGKKTLDQVLEDVDQCCQALSQRLGTQPYFFNKQPTELDALVFGHLYTILTTQLTNDELSEKVKNYSNLLAFCRRIEQHYFEDRGKGRLS
B4: MCU (protein, UniProt Q8NE86 51-351, looked up)
Calcium uniporter protein, …: VHQRIASWQNLGAVYCSTVVPSDDVTVVYQNGLPVISVRLPSRRERCQFTLKPISDSVGVFLRQLQEEDRGIDRVAIYSPDGVRVAASTGIDLLLLDDFKLVINDLTYHVRPPKRDLLSHENAATLNDVKTLVQQLYTTLCIEQHQLNKERELIERLEDLKEQLAPLEKVRIEISRKAEKRTTLVLWGGLAYMATQFGILARLTWWEYSWDIMEPVTYFITYGSAMAMYAYFVMTRQEYVYPEARDRQYLLFFHKGAKKSRFDLEKYNQLKDAIAQAEMDLKRLRDPLQVHLPLRQIGEKD
B5: DARS2 (protein, UniProt Q6PI48 48-645, looked up)
Aspartate--tRNA ligase, …: VVRTNTCGELRSSHLGQEVTLCGWIQYRRQNTFLVLRDFDGLVQVIIPQDESAASVKKILCEAPVESVVQVSGTVISRPAGQENPKMPTGEIEIKVKTAELLNACKKLPFEIKNFVKKTEALRLQYRYLDLRSFQMQYNLRLRSQMVMKMREYLCNLHGFVDIETPTLFKRTPGGAKEFLVPSREPGKFYSLPQSPQQFKQLLMVGGLDRYFQVARCYRDEGSRPDRQPEFTQIDIEMSFVDQTGIQSLIEGLLQYSWPNDKDPVVVPFPTMTFAEVLATYGTDKPDTRFGMKIIDISDVFRNTEIGFLQDALSKPHGTVKAICIPEGAKYLKRKDIESIRNFAADHFNQEILPVFLNANRNWNSPVANFIMESQRLELIRLMETQEEDVVLLTAGEHNKACSLLGKLRLECADLLETRGVVLRDPTLFSFLWVVDFPLFLPKEENPRELESAHHPFTAPHPSDIHLLYTEPKKARSQHYDLVLNGNEIGGGSIRIHNAELQRYILATLLKEDVKMLSHLLQALDYGAPPHGGIALGLDRLICLVTGSPSIRDVIAFPKSFRGHDLMSNTPDSVPPEELKPYHIRVSKPTDSKAERAH
B6: DNAJB12 (protein, UniProt Q9NXW2 1-375, looked up)
DnaJ homolog subfamily B …: MESNKDEAERCISIALKAIQSNQPDRALRFLEKAQRLYPTPRVRALIESLNQKPQTAGDQPPPTDTTHATHRKAGGTDAPSANGEAGGESTKGYTAEQVAAVKRVKQCKDYYEILGVSRGASDEDLKKAYRRLALKFHPDKNHAPGATEAFKAIGTAYAVLSNPEKRKQYDQFGDDKSQAARHGHGHGDFHRGFEADISPEDLFNMFFGGGFPSSNVHVYSNGRMRYTYQQRQDRRDNQGDGGLGVFVQLMPILILILVSALSQLMVSSPPYSLSPRPSVGHIHRRVTDHLGVVYYVGDTFSEEYTGSSLKTVERNVEDDYIANLRNNCWKEKQQKEGLLYRARYFGDTDMYHRAQKMGTPSCSRLSEVQASLHG
B7: CCDC157 (protein, UniProt Q569K6 1-752, looked up)
Coiled-coil domain-containing …: MAHLLGSQACMESLRTDLTDLQGAIVDVFSRAGPVRFPSWKFPDRMACDLDMVALLEHYDHVPGDPEFTQLSHAVLLELVIDRLLLLLQSCMSYLENLGSEQMMPPAQAAGPCMSVGLTVRRFWDSLLRLGTLHQQPLPQKGANQRETPTSKPTTKGEPARSPEYLTTKLIKPSSPVLGLPQTCQEPESIPVRASLQFPATTFKNTRSVHSQTIETALVPCDACASVQGSLQKVGKVVISLCQSQNLPSSLGQFQQLVQDSMGLRPLPAATVGRWAAEQRKDLTRLSKHVEALRAQLEEAEGQKDGLRKQAGKLEQALKQEQGARRRQAEEDEQCLSEWEHDKQQLLTETSDLKTKMATLERELKQQRESTQAVEAKAQQLQEEGERRAAAERQVQQLEEQVQQLEAQVQLLVGRLEGAGQQVCWASTELDKEKARVDSMVRHQESLQAKQRALLKQLDSLDQEREELRGSLDEAEAQRARVEEQLQSEREQGQCQLRAQQELLQSLQREKQGLEQATTDLRLTILELERELEELKERERLLVAFPDLHRPTETQIHGGRSSSVESQITCPTDSGNVTDHMERQVQSNDIRIRVLQEENGRLQSMLSKIREVAQQGGLKLIPQDRLWSPSSKGTQGATPPVQAKSTSPGPLGRQHLPSSRTGRTLLGQPCTSPPRQPCTSPPRQPCTSPPRQPCTSPSRQPCSQPSKSLLEGVTHLDTCTQNPIKVLVRLRKRLSPGRGQASSAHQPQERPM
B8: DYM (protein, UniProt Q7RTS9 2-669, looked up)
Dymeclin: GSNSSRIGDLPKNEYLKKLSGTESISENDPFWNQLLSFSFPAPTSSSELKLLEEATISVCRSLVENNPRTGNLGALIKVFLSRTKELKLSAECQNHIFIWQTHNALFIICCLLKVFICQMSEEELQLHFTYEEKSPGNYSSDSEDLLEELLCCLMQLITDIPLLDITYEISVEAISTMVVFLSCQLFHKEVLRQSISHKYLMRGPCLPYTSKLVKTLLYNFIRQEKPPPPGAHVFPQQSDGGGLLYGLASGVATGLWTVFTLGGVGSKAAASPELSSPLANQSLLLLLVLANLTDASDAPNPYRQAIMSFKNTQDSSPFPSSIPHAFQINFNSLYTALCEQQTSDQATLLLYTLLHQNSNIRTYMLARTDMENLVLPILEILYHVEERNSHHVYMALIILLILTEDDGFNRSIHEVILKNITWYSERVLTEISLGSLLILVVIRTIQYNMTRTRDKYLHTNCLAALANMSAQFRSLHQYAAQRIISLFSLLSKKHNKVLEQATQSLRGSLSSNDVPLPDYAQDLNVIEEVIRMMLEIINSCLTNSLHHNPNLVYALLYKRDLFEQFRTHPSFQDIMQNIDLVISFFSSRLLQAGAELSVERVLEIIKQGVVALPKDRLKKFPELKFKYVEEEQPEEFFIPYVWSLVYNSAVGLYWNPQDIQLFTMDSD
B9: GPR89B (protein, UniProt P0CG08 1-455, looked up)
Golgi pH regulator B: MSFLIDSSIMITSQILFFGFGWLFFMRQLFKDYEIRQYVVQVIFSVTFAFSCTMFELIIFEILGVLNSSSRYFHWKMNLCVILLILVFMVPFYIGYFIVSNIRLLHKQRLLFSCLLWLTFMYFFWKLGDPFPILSPKHGILSIEQLISRVGVIGVTLMALLSGFGAVNCPYTYMSYFLRNVTDTDILALERRLLQTMDMIISKKKRMAMARRTMFQKGEVHNKPSGFWGMIKSVTTSASGSENLTLIQQEVDALEELSRQLFLETADLYATKERIEYSKTFKGKYFNFLGYFFSIYCVWKIFMATINIVFDRVGKTDPVTRGIEITVNYLGIQFDVKFWSQHISFILVGIIIVTSIRGLLITLTKFFYAISSSKSSNVIVLLLAQIMGMYFVSSVLLIRMSMPLEYRTIITEVLGELQFNFYHRWFDVIFLVSALSSILFLYLAHKQAPEKQMAP
B10: MTPAP (protein, UniProt Q9NVV4 38-582, looked up)
Poly(A) RNA polymerase, …: KDLRRDEQPSGSVETGFEDKIPKRRFSEMQNERREQAQRTVLIHCPEKISENKFLKYLSQFGPINNHFFYESFGLYAVVEFCQKESIGSLQNGTHTPSTAMETAIPFRSRFFNLKLKNQTSERSRVRSSNQLPRSNKQLFELLCYAESIDDQLNTLLKEFQLTEENTKLRYLTCSLIEDMAAAYFPDCIVRPFGSSVNTFGKLGCDLDMFLDLDETRNLSAHKISGNFLMEFQVKNVPSERIATQKILSVLGECLDHFGPGCVGVQKILNARCPLVRFSHQASGFQCDLTTNNRIALTSSELLYIYGALDSRVRALVFSVRCWARAHSLTSSIPGAWITNFSLTMMVIFFLQRRSPPILPTLDSLKTLADAEDKCVIEGNNCTFVRDLSRIKPSQNTETLELLLKEFFEYFGNFAFDKNSINIRQGREQNKPDSSPLYIQNPFETSLNISKNVSQSQLQKFVDLARESAWILQQEDTDRPSISSNRPWGLVSLLLPSAPNRKSFTKKKSNKFAIETVKNLLESLKGNRTENFTKTSGKRTISTQT
B11: PARS2 (protein, UniProt Q7L3T8 30-475, looked up)
Probable proline--tRNA …: HHCAPRRGRRLLLSRVFQPQNLREDRVLSLQDKSDDLTCKSQRLMLQVGLIYPASPGCYHLLPYTVRAMEKLVRVIDQEMQAIGGQKVNMPSLSPAELWQATNRWDLMGKELLRLRDRHGKEYCLGPTHEEAITALIASQKKLSYKQLPFLLYQVTRKFRDEPRPRFGLLRGREFYMKDMYTFDSSPEAAQQTYSLVCDAYCSLFNKLGLPFVKVQADVGTIGGTVSHEFQLPVDIGEDRLAICPRCSFSANMETLDLSQMNCPACQGPLTKTKGIEVGHTFYLGTKYSSIFNAQFTNVCGKPTLAEMGCYGLGVTRILAAAIEVLSTEDCVRWPSLLAPYQACLIPPKKGSKEQAASELIGQLYDHITEAVPQLHGEVLLDDRTHLTIGNRLKDANKFGYPFVIIAGKRALEDPAHFEVWCQNTGEVAFLTKDGVMDLLTPVQTV
B12: HS2ST1 (protein, UniProt Q7LGA3 1-356, looked up)
Heparan sulfate …: MGLLRIMMPPKLQLLAVVAFAVAMLFLENQIQKLEESRSKLERAIARHEVREIEQRHTMDGPRQDATLDEEEDMVIIYNRVPKTASTSFTNIAYDLCAKNKYHVLHINTTKNNPVMSLQDQVRFVKNITSWKEMKPGFYHGHVSYLDFAKFGVKKKPIYINVIRDPIERLVSYYYFLRFGDDYRPGLRRRKQGDKKTFDECVAEGGSDCAPEKLWLQIPFFCGHSSECWNVGSRWAMDQAKYNLINEYFLVGVTEELEDFIMLLEAALPRFFRGATELYRTGKKSHLRKTTEKKLPTKQTIAKLQQSDIWKMENEFYEFALEQFQFIRAHAVREKDGDLYILAQNFFYEKIYPKSN

Each molecule was assayed on BAF complex subunits and histone proteins (assay: Mass spectrometry proteomics of purified HA-SS18 WT and HA-SS18-SSX1 complexes (Tables 5A-5E)). Settings: HA-SS18WT_NE_peptides: proteins co-purified with HA-SS18 WT from nuclear extract (NE), HEK-293T.
Set-up: species or system human
B1 was tested, and the “Total (peptides)” value was 2 and the “Unique (peptides)” value was 2. For B2, the “Total (peptides)” value was 1 and the “Unique (peptides)” value was 1. For B3, the “Total (peptides)” value was 1 and the “Unique (peptides)” value was 1. With B4 the “Total (peptides)” value was 1 and the “Unique (peptides)” value was 1. B5 was tested, and the “Total (peptides)” value was 2 and the “Unique (peptides)” value was 2. For B6, the “Total (peptides)” value was 1 and the “Unique (peptides)” value was 1. In the case of B7, the “Total (peptides)” value is reported as 2 and the “Unique (peptides)” value is reported as 1. B8 was tested, and the “Total (peptides)” value was 2 and the “Unique (peptides)” value was 1. B9 was tested, and the “Total (peptides)” value was 1 and the “Unique (peptides)” value was 1. In the case of B10, the “Total (peptides)” value is reported as 1 and the “Unique (peptides)” value is reported as 1. For B11, the “Total (peptides)” value was 2 and the “Unique (peptides)” value was 2. For B12, the “Total (peptides)” value was 1 and the “Unique (peptides)” value was 1.
